Experimental data as given in the supplement of paper PMC10849652.
The other results are listed elsewhere or left out.

Protein sequences, listed by entry. Tags and fused reporters are not part of them. Lines headed by an entry give the natural chain unless they say otherwise; changes in a name come on top.
UniProt O43759: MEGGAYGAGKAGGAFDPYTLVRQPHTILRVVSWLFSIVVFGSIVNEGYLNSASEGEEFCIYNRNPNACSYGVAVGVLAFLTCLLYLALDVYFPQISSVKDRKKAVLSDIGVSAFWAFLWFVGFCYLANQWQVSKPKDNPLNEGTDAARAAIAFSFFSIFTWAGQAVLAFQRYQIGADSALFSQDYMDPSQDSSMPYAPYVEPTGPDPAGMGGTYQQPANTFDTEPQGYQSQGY
UniProt P49842: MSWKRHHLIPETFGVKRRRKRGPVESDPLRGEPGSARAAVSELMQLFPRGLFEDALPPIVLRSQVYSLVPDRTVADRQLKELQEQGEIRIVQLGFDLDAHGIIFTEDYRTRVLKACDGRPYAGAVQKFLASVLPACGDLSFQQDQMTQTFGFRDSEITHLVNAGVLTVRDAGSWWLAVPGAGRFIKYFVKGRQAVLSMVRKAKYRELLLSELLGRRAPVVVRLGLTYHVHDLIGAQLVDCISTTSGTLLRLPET
UniProt Q8TDR2: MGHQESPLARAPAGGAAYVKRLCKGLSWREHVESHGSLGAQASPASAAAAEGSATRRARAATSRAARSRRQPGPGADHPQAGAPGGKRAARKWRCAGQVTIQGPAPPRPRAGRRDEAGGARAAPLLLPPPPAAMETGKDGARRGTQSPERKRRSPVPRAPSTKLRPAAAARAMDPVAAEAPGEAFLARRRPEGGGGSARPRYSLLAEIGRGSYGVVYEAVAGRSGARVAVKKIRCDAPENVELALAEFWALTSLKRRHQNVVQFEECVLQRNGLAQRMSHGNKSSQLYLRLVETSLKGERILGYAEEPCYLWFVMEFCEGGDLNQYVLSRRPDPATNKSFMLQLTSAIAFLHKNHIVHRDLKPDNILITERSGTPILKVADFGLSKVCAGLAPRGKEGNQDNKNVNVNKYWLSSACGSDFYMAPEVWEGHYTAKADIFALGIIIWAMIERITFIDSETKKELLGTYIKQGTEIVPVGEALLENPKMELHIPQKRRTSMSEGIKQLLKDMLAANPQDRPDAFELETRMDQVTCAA
UniProt O15061: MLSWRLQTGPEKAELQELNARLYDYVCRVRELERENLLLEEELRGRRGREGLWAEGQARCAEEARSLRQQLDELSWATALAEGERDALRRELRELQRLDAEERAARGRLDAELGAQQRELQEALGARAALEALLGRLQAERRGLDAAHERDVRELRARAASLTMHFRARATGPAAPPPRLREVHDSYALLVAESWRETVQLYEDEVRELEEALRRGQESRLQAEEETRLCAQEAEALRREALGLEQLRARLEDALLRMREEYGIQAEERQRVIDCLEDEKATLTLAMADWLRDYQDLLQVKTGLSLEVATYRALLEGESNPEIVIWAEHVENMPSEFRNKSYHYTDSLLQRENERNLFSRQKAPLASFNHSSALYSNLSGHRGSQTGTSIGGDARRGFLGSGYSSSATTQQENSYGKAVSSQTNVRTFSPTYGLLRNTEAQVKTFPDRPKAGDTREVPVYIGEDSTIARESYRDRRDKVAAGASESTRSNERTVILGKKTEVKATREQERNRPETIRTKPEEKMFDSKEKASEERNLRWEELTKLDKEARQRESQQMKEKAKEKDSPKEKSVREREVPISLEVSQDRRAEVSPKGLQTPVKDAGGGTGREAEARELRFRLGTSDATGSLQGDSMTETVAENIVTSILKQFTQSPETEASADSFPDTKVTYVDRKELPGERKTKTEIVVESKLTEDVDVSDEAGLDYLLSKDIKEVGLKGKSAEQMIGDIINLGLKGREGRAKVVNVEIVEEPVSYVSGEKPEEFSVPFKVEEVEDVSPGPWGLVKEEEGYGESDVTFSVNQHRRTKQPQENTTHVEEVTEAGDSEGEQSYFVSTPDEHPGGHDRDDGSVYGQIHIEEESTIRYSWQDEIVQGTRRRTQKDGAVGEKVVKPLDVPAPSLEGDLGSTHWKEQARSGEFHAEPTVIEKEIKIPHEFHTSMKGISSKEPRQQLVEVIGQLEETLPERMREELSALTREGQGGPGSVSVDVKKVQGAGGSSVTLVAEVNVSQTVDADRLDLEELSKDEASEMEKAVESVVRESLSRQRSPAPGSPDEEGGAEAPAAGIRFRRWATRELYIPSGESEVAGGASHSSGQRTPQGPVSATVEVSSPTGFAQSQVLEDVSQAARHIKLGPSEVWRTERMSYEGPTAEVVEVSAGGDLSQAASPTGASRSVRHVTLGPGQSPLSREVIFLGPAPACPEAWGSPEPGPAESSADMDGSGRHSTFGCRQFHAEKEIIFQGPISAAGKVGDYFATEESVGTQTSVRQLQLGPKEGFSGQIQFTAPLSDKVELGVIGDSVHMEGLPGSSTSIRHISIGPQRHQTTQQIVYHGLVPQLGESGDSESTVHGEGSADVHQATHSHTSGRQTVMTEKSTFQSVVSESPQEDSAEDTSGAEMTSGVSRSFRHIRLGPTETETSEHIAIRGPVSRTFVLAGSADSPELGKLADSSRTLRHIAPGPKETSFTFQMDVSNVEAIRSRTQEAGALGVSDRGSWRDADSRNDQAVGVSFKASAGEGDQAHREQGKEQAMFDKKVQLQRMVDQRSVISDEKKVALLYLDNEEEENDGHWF
UniProt Q15544, whole entry, looked up: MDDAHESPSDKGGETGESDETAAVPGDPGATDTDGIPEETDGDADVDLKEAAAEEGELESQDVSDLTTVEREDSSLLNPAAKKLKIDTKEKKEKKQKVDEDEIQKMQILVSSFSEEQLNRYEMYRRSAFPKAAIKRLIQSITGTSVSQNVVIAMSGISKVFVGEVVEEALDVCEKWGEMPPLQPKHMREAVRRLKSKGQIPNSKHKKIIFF
UniProt Q9P246, whole entry, looked up: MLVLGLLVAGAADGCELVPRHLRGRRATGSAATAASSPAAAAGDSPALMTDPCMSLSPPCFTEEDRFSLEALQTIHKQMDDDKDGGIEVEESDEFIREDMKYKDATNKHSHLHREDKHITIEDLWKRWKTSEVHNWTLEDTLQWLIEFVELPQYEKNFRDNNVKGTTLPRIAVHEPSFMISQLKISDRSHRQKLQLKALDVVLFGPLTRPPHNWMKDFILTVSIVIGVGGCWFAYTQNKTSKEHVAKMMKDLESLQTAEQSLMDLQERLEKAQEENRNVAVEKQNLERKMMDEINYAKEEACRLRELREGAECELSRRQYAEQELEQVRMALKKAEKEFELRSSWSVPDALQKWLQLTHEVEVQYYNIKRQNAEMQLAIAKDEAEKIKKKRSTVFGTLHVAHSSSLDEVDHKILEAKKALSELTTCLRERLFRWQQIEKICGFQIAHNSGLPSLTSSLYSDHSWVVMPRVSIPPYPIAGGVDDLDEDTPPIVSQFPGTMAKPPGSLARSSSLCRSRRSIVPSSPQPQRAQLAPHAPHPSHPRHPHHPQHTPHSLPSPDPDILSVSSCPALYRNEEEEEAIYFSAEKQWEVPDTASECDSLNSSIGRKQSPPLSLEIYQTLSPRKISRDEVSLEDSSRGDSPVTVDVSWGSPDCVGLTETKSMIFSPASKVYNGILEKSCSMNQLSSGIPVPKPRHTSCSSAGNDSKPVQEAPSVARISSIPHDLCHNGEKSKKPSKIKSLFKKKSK
UniProt Q15527: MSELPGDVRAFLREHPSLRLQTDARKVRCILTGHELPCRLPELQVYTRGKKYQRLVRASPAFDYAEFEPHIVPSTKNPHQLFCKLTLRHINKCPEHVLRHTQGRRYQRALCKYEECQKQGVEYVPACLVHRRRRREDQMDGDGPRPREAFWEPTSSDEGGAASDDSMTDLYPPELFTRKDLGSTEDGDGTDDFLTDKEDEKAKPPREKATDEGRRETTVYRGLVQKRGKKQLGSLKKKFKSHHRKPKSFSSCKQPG
UniProt Q15573: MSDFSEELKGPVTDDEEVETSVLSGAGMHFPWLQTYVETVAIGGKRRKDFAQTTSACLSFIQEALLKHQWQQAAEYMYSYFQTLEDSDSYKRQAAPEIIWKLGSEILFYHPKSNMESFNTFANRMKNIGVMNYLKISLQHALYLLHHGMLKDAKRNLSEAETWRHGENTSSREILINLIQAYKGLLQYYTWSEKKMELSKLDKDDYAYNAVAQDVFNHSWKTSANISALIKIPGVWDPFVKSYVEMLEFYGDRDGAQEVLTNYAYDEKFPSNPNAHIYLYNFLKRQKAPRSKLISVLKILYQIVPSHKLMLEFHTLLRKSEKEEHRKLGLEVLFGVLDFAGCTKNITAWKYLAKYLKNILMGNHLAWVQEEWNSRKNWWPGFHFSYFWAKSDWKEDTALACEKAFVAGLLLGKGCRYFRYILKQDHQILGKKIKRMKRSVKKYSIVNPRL
UniProt O43761: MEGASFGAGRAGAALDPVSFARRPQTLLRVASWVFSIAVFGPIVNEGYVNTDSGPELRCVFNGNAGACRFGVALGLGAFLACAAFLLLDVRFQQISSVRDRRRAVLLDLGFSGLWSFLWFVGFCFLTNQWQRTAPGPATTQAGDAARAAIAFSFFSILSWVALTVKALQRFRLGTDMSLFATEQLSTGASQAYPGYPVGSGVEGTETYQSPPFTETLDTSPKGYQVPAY
UniProt Q9Y2H1: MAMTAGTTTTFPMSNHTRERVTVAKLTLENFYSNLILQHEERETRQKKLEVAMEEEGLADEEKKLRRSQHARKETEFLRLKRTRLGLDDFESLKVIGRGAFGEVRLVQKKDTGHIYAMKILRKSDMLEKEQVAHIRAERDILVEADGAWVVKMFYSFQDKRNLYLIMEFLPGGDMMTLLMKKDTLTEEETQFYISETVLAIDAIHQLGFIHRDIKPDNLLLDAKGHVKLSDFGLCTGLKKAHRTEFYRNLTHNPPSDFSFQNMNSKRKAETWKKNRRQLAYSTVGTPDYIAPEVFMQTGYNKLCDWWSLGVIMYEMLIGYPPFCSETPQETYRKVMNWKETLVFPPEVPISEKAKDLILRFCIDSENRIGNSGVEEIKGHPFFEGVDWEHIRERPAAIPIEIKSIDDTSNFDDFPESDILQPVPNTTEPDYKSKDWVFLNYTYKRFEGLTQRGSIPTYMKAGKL
UniProt Q13033: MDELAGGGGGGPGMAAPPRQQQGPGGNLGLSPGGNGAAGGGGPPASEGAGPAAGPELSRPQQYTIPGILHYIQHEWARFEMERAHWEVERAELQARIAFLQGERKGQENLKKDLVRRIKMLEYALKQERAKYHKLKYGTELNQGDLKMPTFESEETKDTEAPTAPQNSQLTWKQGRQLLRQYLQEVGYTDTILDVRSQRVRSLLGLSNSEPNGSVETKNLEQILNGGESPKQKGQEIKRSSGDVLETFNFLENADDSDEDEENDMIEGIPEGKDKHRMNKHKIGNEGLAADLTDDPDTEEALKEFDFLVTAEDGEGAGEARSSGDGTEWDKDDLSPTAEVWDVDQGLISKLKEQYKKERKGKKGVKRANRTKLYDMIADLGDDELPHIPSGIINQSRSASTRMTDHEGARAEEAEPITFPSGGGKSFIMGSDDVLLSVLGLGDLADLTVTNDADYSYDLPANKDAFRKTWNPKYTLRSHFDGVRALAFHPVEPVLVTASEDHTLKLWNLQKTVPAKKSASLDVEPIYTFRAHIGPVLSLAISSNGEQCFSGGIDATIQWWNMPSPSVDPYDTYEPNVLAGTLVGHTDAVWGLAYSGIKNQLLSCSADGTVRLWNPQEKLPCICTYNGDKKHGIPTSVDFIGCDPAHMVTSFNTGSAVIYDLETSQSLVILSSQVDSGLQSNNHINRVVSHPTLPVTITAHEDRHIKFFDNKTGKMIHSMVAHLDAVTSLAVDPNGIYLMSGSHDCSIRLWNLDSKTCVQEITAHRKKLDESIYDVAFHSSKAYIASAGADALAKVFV
UniProt P0DMM9: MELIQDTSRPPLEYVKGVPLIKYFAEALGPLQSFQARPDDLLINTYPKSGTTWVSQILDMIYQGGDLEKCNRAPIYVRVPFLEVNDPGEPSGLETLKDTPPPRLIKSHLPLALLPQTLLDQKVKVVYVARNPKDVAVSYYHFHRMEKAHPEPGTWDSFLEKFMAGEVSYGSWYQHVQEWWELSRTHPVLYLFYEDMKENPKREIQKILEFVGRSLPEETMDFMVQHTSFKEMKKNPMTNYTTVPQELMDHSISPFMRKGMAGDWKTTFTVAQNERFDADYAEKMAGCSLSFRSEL
UniProt O94768: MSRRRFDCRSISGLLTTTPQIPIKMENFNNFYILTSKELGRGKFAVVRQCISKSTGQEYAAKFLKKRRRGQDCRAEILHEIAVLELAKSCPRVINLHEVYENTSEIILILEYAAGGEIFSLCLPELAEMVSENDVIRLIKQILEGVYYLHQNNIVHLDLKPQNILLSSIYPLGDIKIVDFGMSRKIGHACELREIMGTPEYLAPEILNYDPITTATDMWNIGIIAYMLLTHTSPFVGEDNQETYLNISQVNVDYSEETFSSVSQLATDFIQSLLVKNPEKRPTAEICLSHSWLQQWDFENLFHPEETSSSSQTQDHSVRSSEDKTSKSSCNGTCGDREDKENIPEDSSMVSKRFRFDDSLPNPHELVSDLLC

Legend:
Assay in all cases: log2 fold change, soluble protein after heating vs DMSO (PISA); higher = thermal stabilisation; K562 lysate, 10 uM; active = over 0.2 and 3.5 SD of the protein, either way, in both replicates (recomputed)
erlotinib = compound: C#Cc1cccc(Nc2ncnc3cc(OCCOC)c(OCCOC)cc23)c1 [erlotinib]
Procedure, shortened: (§1)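 Quantification was by TMTpro 16plex LC-MS/MS with equalised channel sums, applied to the supernatant after 21,000xg for 90 min. Samples were crude K562 extract at 1 mg/mL protein in PBS pH 7.4 with 1 mM MgCl2, treated with 10 μM compound for 30 min, heated for 3 min across 48°C-58°C, pooled and brought to 0.5% NP-40 at 4°C. Values are log-two fold changes in thermal stability relative to solvent controls, from duplicates.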

[1] = compound: C1=CC(=CC=C1C2=NC3=C(N2)C=C(C=C3)C(=O)N)OC4=CC=C(C=C4)Cl
Procedure, shortened: as §1

[2] = compound: C1=CC2=NC=CN=C2C=C1/C=C/3\C(=O)NC(=O)S3
Procedure, shortened: as §1

[3] = compound: C1=CC=C(C=C1)C2=NC(=C(N2)C3=CC=NC=C3)C4=CC(=C(C=C4)Cl)O
Procedure, shortened: as §1

[4] = compound: C1CCN(C1)C(=O)NC2=CC=CC(=C2)NC3=NC=C(C(=N3)NCCC4=CN=CN4)Br
Procedure, shortened: as §1

[5] = compound: C1CN(CCC1(CC2=CC=C(C=C2)Cl)N)C3=NC=NC4=C3C=CN4
Procedure, shortened: as §1

IRAK-1-4 Inhibitor I = compound: C1COCCN1CCN2C3=CC=CC=C3N=C2NC(=O)C4=CC(=CC=C4)[N+](=O)[O-] [IRAK-1-4 Inhibitor I]
Procedure, shortened: as §1

ibrutinib = compound: C=CC(=O)N1CCC[C@@H](n2nc(-c3ccc(Oc4ccccc4)cc3)c3c(N)ncnc32)C1 [ibrutinib]
Procedure, shortened: as §1

ralimetinib = compound: CC(C)(C)Cn1c(N)nc2ccc(-c3[nH]c(C(C)(C)C)nc3-c3ccc(F)cc3)nc21 [ralimetinib]
Procedure, shortened: as §1

[6] = compound: CC(C)(O)CC(=O)NCCn1ccc2ncnc(Nc3ccc(Oc4cccc(C(F)(F)F)c4)c(Cl)c3)c21
Procedure, shortened: as §1

[7] = compound: CC(C)C1=C2N=C(C=C(N2N=C1)NCC3=CC=CC=C3)NCCCCCCN
Procedure, shortened: as §1

[8] = compound: CC1=C(C=C(C=C1)NC(=O)C2=CC(=CC=C2)C(C)(C)C#N)NC3=CC4=C(C=C3)N=CN(C4=O)C
Procedure, shortened: as §1

[9] = compound: CC1=C(C=C(C=C1)NC(=O)C2=CC(=CC=C2)N(C)C)NC(=O)C3=CC=C(C=C3)O
Procedure, shortened: as §1

[10] = compound: CC1=C(C(CC(=O)N1)C2=CC=C(C=C2)C(F)(F)F)C(=O)NC3=C(C=C4C(=C3)C=NN4)F
Procedure, shortened: as §1

[11] = compound: CC1=C(C2=C(C=C1)C(=O)C3=CC=CC=C3N2CCCN)C
Procedure, shortened: as §1

[12] = compound: CC(=O)c1cnc2ccc(-c3cc(Cl)c(O)c(Cl)c3)nc2c1N[C@H]1CC[C@H](CN(C)C)CC1
Procedure, shortened: as §1

[13] = compound: CC1=CC=C(C=C1)SC2=C3C=C(SC3=CN=C2)C(=O)N
Procedure, shortened: as §1

[14] = compound: C/C(=N\NC(=O)C1=CC(=CC=C1)S(=O)(=O)N2CCOCC2)/C3=C(C=CC(=C3)Cl)O
Procedure, shortened: as §1

[15] = compound: C1=CC2=C(C=CC(=C2)/C=C\3/C(=O)NC(=NCC4=CC=CS4)S3)N=C1
Procedure, shortened: as §1

[16] = compound: C1=CC=C2C(=C1)C3=NNC4=CC=CC(=C43)C2=O
Procedure, shortened: as §1

Measured: log2 fold change

SYNGR1 isoform 2 (UniProt O43759)
inactive: erlotinib -0.029 | [1] -0.046 | [2] -0.065 | [3] -0.099 | [4] 0.052 | [5] -0.089 | IRAK-1-4 Inhibitor I 0.219 | ibrutinib 0.036 | ralimetinib -0.031 | [6] -0.015 | [7] -0.106 | [8] 0.086 | [9] -0.201

STK19 (UniProt P49842)
inactive: [10] -0.01 | [11] 0.002 | [8] -0.05

STK35 (UniProt Q8TDR2)
inactive: [2] -0.251 | [4] -0.034 | [5] 0.074 | ibrutinib -0.136 | [12] -0.065 | [11] -0.268 | [13] -0.002

TADA2A (UniProt O75478)
inactive: erlotinib -0.001 | [1] 0.147 | [3] 0.035 | IRAK-1-4 Inhibitor I 0.136 | ralimetinib 0.008 | [6] -0.078 | [7] 0.152 | [10] -0.043 | [8] 0.124 | [9] -0.015

SYNM (UniProt O15061)
inactive: [2] -0.027 | [4] -0.152 | [5] 0.053 | ibrutinib -0.014

TAF11 (UniProt Q15544)
inactive: [14] 0.174 | [15] -0.144 | [3] -0.04 | [16] 0.124 | [4] -0.242 | [5] 0.071 | IRAK-1-4 Inhibitor I 0.051 | [12] -0.013 | ralimetinib 0.027 | [6] 0.008 | [10] 0.015 | [11] 0.115 | [8] 0.052 | [9] 0.072 | [13] -0.114

TACC3 (UniProt C9JWI7)
inactive: [14] -0.228 | [15] -0.025 | [16] -0.213

STIM2 isoform 2 (UniProt Q9P246)
inactive: erlotinib -0.176 | [1] 0.166 | [3] 0.015 | [4] -0.061 | [5] 0.046 | IRAK-1-4 Inhibitor I -0.059 | [12] 0.043 | ralimetinib -0.031 | [6] -0.18 | [7] -0.14 | [10] 0.237 | [11] -0.041 | [8] -0.042 | [9] 0.076 | [13] 0.093

SURF2 (UniProt Q15527)
inactive: [14] 0.087 | [15] -0.019 | [2] 0.02 | [3] -0.004 | [16] 0.022 | [4] 0.051 | [5] 0.074 | IRAK-1-4 Inhibitor I 0.035 | ibrutinib 0.001 | [12] -0.019 | ralimetinib -0.147 | [6] -0.038 | [10] 0.103 | [11] 0.018 | [8] 0.026 | [9] 0.031 | [13] -0.02

TAF1C (UniProt Q15572)
inactive: [14] 0.1 | [15] 0 | [2] -0.055 | [3] 0 | [16] -0.109 | [4] 0.105 | [5] -0.074 | IRAK-1-4 Inhibitor I -0.14 | ibrutinib 0.052 | ralimetinib 0.088 | [6] -0.01 | [10] 0.096 | [11] -0.008 | [8] -0.035 | [9] -0.02

Quoted at random: two records from the list.
TAF1C (UniProt Q15572)
inactive: [14] 0.1 | [15] 0 | [2] -0.055 | [3] 0 | [16] -0.109 | [4] 0.105 | [5] -0.074 | IRAK-1-4 Inhibitor I -0.14 | ibrutinib 0.052 | ralimetinib 0.088 | [6] -0.01 | [10] 0.096 | [11] -0.008 | [8] -0.035 | [9] -0.02

TACC3 (UniProt C9JWI7)
inactive: [14] -0.228 | [15] -0.025 | [16] -0.213

Additional results.

TAF1A (UniProt Q15573)
inactive: [14] -0.097 | [15] -0.002 | [16] 0.163 | [10] 0.025

STRN3 (UniProt H0YJT2)
inactive: [4] -0.173 | [5] 0.326 | [11] -0.163

SYNGR3 (UniProt O43761)
inactive: [2] -0.073 | ibrutinib 0.059

STK38L (UniProt Q9Y2H1)
inactive: erlotinib -0.001 | [1] -0.163 | [3] 0.113 | [4] -0.027 | [5] 0.11 | IRAK-1-4 Inhibitor I 0.011 | ralimetinib -0.069 | [6] 0.021 | [7] -0.019 | [10] -0.024 | [11] -0.019 | [8] 0 | [9] 0.056

STK17A (UniProt Q9UEE5)
inactive: [10] 0.213

STK10 (UniProt O94804)
inactive: erlotinib 0.121 | [1] 0.041 | [2] -0.15 | [3] 0.083 | IRAK-1-4 Inhibitor I 0.122 | ibrutinib -0.047 | ralimetinib -0.191 | [6] -0.298 | [7] 0.118 | [11] -0.016 | [8] 0.379 | [9] 0.084

STRN3 isoform 2 (UniProt Q13033)
inactive: [2] 0.015 | ibrutinib -0.007 | [11] 0.028

SULT1A3 isoform 3 (UniProt P0DMM9)
inactive: erlotinib -0.015 | [1] 0.031 | [2] 0.041 | [3] 0.099 | [4] 0.002 | [5] -0.094 | IRAK-1-4 Inhibitor I 0.031 | ibrutinib -0.048 | ralimetinib -0.022 | [6] -0.088 | [7] 0.053 | [10] -0.051 | [11] -0.043 | [8] -0.007 | [9] -0.035

TAF3 (UniProt Q5VWG9)
inactive: [3] 0.122 | IRAK-1-4 Inhibitor I -0.327 | [12] -0.1 | ralimetinib 0.1 | [6] 0.132 | [10] 0.149 | [9] 0.158 | [13] -0.323

STK17B (UniProt O94768)
inactive: erlotinib -0.041 | [1] -0.341 | [3] -0.022 | IRAK-1-4 Inhibitor I -0.065 | ralimetinib 0.104 | [6] -0.004 | [7] 0.162 | [10] 0.054 | [11] -0.102 | [8] 0.147 | [9] 0.07
